Drawing on article doi:10.1101/2022.03.07.483362, this text covers binding for 1 molecule.

In the assay the target is AtRsmD-GFP (p35S:AtRsmD-GFP) transiently expressed in N. benthamiana (Arabidopsis thaliana). Description: co-IP.

These are yes or no findings as the source states them, for the method shown. In cells and extracts the contact can be indirect. Binding can be weak; no strength is given. Sequences can lack the tags named with a protein.

B1: RPS20-Myc (protein, UniProt Q9ASV6 80-202)
chain: AAAPTKKADSAAKRARQAEKRRVYNKSKKSEARTRMKKVLEALEGLKKKTDAQADEIVTVEKLIGEAYSAIDKAVKVKALHKNTGARRKSRLARRKKAVEIHHGWYVPDAAAAAPSEAVPMAA
In the case of B1, the binding result was “binds”.
